Results are given in words; binding and its absence hold for the method and conditions named. Some binding calls cover weakened binding; strength is not graded here.

By UniProt entry, the sequences of proteins in these tests, tags left out. Residues count along the entry.
UniProt Q9NYV4, 714-1063: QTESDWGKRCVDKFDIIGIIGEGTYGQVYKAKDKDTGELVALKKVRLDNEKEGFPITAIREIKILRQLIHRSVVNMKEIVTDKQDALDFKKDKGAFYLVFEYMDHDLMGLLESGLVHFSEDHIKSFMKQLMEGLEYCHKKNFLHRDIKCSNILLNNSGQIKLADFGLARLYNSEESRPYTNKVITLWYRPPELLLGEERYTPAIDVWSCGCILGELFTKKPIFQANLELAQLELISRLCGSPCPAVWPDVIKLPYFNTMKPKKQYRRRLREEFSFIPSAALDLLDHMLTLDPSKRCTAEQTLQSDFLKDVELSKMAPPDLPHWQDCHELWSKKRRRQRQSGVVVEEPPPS

These results are taken from publication doi:10.1101/2025.01.15.633177 (bioRxiv, 2025).

This test addresses CDK12 kinase domain (amino acids 714-1063) (human) (UniProt Q9NYV4). Description: co-expression and co-purification.

B1: cyclin K cyclin box domains (amino acids 1-267) (domain or fragment, UniProt O75909 1-267)
chain: MKENKENSSPSVTSANLDHTKPCWYWDKKDLAHTPSQLEGLDPATEARYRREGARFIFDVGTRLGLHYDTLATGIIYFHRFYMFHSFKQFPRYVTGACCLFLAGKVEETPKKCKDIIKTARSLLNDVQFGQFGDDPKEEVMVLERILLQTIKFDLQVEHPYQFLLKYAKQLKGDKNKIQKLVQMAWTFVNDSLCTTLSLQWEPEIIAVAVMYLAGRLCKFEIQEWTSKPMYRRWWEQFVQDVPVDVLEDICHQILDLYSQGKQQMPH
B1: the binding entry is recorded as “binds”.
